Experimental findings from PMC5823869 are described below.

The chains behind the UniProt entries cited, without tags or fusion partners. Where a name states a change or a piece, a line headed by the entry shows the natural chain unless it says otherwise.
UniProt Q9GZV5: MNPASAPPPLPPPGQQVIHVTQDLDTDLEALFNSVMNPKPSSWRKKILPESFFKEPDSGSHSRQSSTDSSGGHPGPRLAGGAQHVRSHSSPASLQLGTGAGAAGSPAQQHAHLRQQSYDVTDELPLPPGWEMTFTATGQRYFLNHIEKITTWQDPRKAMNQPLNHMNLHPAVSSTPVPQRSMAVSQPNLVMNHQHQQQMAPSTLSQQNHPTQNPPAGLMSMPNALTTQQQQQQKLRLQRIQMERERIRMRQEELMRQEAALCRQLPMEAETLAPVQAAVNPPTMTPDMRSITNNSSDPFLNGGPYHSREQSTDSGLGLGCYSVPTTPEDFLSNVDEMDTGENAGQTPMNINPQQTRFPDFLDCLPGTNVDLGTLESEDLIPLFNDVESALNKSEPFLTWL

Results are given in words; binding and its absence hold for the method and conditions named. For some assays here: In cells and extracts the contact can be indirect.

In experiment [1] the target is TAZ-WT, FLAG- or HA-tagged (human) (UniProt Q9GZV5). Put plainly: co-IP; HEK293 cells transfected with HA- and FLAG-tagged plasmids alone or together; 1% NP-40 lysis buffer; immunoprecipitation with anti-HA, blot with anti-FLAG and anti-HA; washes with 150 mM NaCl, 1% NP-40.
Experiment [2] deals with FLAG-tagged TAZ-3CA (C262A, C320A and C363A) (human) (UniProt Q9GZV5). The experiment in a line: non-reducing SDS-PAGE with immunoblot; cell lysates (15 µg of transfected HEK293; 30 µg of H460 for endogenous TAZ) in SDS sample buffer without DTT, 3 min at 60 °C; blot with anti-FLAG, anti-HA or anti-TAZ; series with increasing DTT run beside.
Experiment [3] deals with TAZ-WT-GST fusion protein (human) (UniProt Q9GZV5). Put plainly: pull-down; 5 µg of GST fusion protein added to 200 µg of precleared HEK293 lysate, 2 hr at 4 °C, glutathione sepharose 4B beads; washes in 50 mM Tris-HCl pH 7.4, 150 mM NaCl, 1 mM EDTA, 1.0% Nonidet P-40; blot with anti-FLAG; only the target purified.
Experiment [4] shares this target. The experiment in a line: non-reducing SDS-PAGE with immunoblot; 1 µg of purified His-YAP2L or GST-TAZ protein with DTT (reducing SDS-PAGE, or 10 mM DTT before non-reducing SDS-PAGE); blot with anti-His-HRP or anti-YAP, or Ponceau-S staining; both purified.
Experiment [5] addresses TAZ-3CA-GST fusion protein (human) (UniProt Q9GZV5). Put plainly: non-reducing SDS-PAGE with immunoblot; 1 µg of purified His-YAP2L or GST-TAZ protein, sample buffer without DTT; blot with anti-His-HRP or anti-YAP, or Ponceau-S staining; both purified.

For “FLAG-tagged TAZ-3CA (C262A, C320A and C363A) (from UniProt Q9GZV5 1-400)”, the binding result in experiment [1], in experiment [2] and in experiment [3] was “no binding” throughout.

Turning to “TAZ-WT-GST fusion protein (from UniProt Q9GZV5 1-400)”, the binding result in experiment [4] is recorded as “no binding (condition: with 10 mM DTT)”.

“TAZ-3CA-GST fusion protein (from UniProt Q9GZV5 1-400)”: the binding result in experiment [5] is given as “no binding”.
